For this assay, the target named is recombinant Ani s 5 (Anisakis simplex) (UniProt A1IKL2). The assay can be described thus: AUC; sedimentation velocity, interference optics, 45,000 rpm, 20°C, under the NMR conditions (approximately 0.5 mM labelled His-tagged protein, pH 5.0 and 3.5); c(s) analysis with SEDFIT; both purified.

Experimental findings from article PMC3945735 are described below.

Results are given in words; binding and its absence hold for the method and conditions named.

B1: recombinant Ani s 5 (protein, UniProt A1IKL2 19-152)
chain: DDTPPPPPFLAGAPQDVVKAFFELLKKDETKTDPEIEKDLDAWVDTLGGDYKAKFETFKKEMKAKEAELAKAHEEAVAKMTPEAKKADAELSKIAEDDSLNGIQKAQKIQAIYKTLPQSVKDELEKGIGPAVPQ
modifications: 100% 13C and 15N isotopic labelling
For B1, the binding result was “no binding (tested: approximately 0.5 mM (NMR conditions))”.
